Data published in PMC2033760, “Interleukin 1 modulates growth of human renal carcinoma cells in vitro” (British Journal of Cancer, 1995).
Results are given in words; binding and its absence hold for the method and conditions named. Binding seen in cells or lysates may run through a third protein. Some binding calls cover weakened binding; strength is not graded here.

Sequences of proteins named here, by UniProt entry; tags and fusion partners are left off. Residues count along the entry.
UniProt P14778, residues 18-569: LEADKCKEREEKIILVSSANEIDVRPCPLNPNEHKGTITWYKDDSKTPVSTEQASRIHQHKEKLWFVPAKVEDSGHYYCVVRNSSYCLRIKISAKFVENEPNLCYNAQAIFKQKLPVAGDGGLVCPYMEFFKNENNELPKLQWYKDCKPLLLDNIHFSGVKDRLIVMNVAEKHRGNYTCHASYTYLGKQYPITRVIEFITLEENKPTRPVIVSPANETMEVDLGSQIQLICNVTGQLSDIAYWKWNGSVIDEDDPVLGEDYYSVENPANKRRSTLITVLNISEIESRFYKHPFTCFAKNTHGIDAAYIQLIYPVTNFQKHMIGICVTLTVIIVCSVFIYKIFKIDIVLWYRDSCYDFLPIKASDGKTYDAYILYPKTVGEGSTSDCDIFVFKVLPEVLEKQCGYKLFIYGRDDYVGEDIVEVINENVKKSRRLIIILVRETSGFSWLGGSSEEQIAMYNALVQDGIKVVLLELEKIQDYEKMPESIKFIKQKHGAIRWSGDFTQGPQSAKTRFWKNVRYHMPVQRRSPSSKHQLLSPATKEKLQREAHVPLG

Molecular target: IL-1 receptor type I (human (endogenous in A-498)) (UniProt P14778)
Experiment: cross-linking; A-498 cells (90% confluent) incubated with 5 ng/ml IL-1 for 3 h at 4 C, washed, cross-linked with DSS (1 mg/ml in PBS, 1 h, 4 C), lysed in 1% Triton X-100; immunoprecipitation with antibodies against IL-1 and protein G; Western blot with the anti-IL-1 antibody; band of about 100 kDa; only the binder purified

B1: Human recombinant IL-1 alpha (ligand, UniProt P01583 113-271)
chain: SAPFSFLSNVKYNFMRIIKYEFILNDALNQSIIRANDQYLTAAALHNLDEAVKFDMGAYKSSKDDAKITVILRISKTQLYVTAQDEDQPVLLKEMPEIPKTITGSETNLLFFWETHGTKNYFTSVAHPNLFIATKQDYWVCLAGGPPSITDFQILENQA
In the case of B1, the binding is reported as “binds”.
